Reference: patent US20220332844A1 (ORIONIS BIOSCIENCES, published 2022)
Substitutions are numbered along the chain they refer to. Results are given in words; binding and its absence hold for the method and conditions named. Some binding calls cover weakened binding; strength is not graded here.

The chains behind the UniProt entries cited, without tags or fusion partners. Where a name states a change or a piece, a line headed by the entry shows the natural chain unless it says otherwise.
UniProt Q12884: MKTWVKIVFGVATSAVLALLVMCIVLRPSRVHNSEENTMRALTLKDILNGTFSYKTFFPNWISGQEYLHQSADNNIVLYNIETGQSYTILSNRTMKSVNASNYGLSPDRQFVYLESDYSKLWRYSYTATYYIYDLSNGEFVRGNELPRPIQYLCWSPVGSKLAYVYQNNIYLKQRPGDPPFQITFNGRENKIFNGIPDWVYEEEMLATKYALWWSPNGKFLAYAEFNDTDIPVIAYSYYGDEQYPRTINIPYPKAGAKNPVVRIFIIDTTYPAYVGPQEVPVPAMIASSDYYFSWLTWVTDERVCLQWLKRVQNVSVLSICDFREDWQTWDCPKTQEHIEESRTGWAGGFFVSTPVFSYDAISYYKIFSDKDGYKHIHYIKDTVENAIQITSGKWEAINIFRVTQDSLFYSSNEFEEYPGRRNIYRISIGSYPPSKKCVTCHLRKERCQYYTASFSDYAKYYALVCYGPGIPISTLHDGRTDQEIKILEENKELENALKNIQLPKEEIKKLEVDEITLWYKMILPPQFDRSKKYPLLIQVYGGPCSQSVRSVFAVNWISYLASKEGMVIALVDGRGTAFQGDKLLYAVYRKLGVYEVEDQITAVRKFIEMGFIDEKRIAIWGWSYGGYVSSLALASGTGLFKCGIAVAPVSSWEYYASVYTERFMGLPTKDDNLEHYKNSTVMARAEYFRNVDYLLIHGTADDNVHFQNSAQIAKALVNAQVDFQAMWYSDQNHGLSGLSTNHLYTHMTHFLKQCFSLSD

B1: 2PE84 (VHH)
VHH: QVQLQESGGGLVQAGGSLRLSCAASGSISSLNAMGWYRQAPGKQREWVAGITSGGSTNYADSVKGRFTILRDNAKNTVYLQMSSLKFEDTAVYYCNLWPPRASPSGAVYWGQGTQVTVSS
B2: 2PE62 (VHH)
VHH: QVQLQESGGGLVQAGGSLRLSCADSSGSTFSINAMAWYRQAPGKRRDWVAGITSDSVTKYPDSVKGRFTISRDNAKNTVYLQMNSLKPEDTAVYYCNLWPPRASPSGRIDWGQGTQVTVSS
B3: 2PE25 (VHH)
VHH: QVQLQESGGGLVQVGGSLRLSCAASGSSFIINAMGWYRQAPGKRRELVAGISSDGATHYPDSVKGRFTISRDNAKNIVYLQMNSLKPEDTAVYYCNLWPPRASPSGRVYWGQGTQVTVSS
B4: 2PE67 (VHH)
VHH: B3 VHH with S28T, I31L, K43N, D54G, A56D, H58N, K75N, P87L, V108P
B5: 2PE13 (VHH)
VHH: B3 VHH with S28T, I31L, G35A, K43N, D54G, A56D, H58N, K75N, P87L
B6: 2PE32 (VHH)
VHH: B3 VHH with S28T, I30S, G55D, A56I, H58Y, I77T, V108G
B7: 2PE27 (VHH)
VHH: QVQLQESGGGLVQPGGSLRLSCAASGSISSINAMAWYRQAPGKRRELVAGIDGGGVTNYPDSVKGRFTISRDNAKNTVYLQMSSLKPEDTAVYYCNLWPPRASPGGRVYWGQGTQVTVSS
B8: 2PE68 (VHH)
VHH: B7 VHH with S29F, I31T, D52S, S103P, G105D
B9: 2PE59 (VHH)
VHH: B7 VHH with A24V, S29F, I31L, D52S, G55S, N73S, A74T
B10: 3PE1 (VHH)
VHH: B7 VHH with P14A, R19K, A24G, I28T, S29F, K43E, D52S, G54D, G55N, V56I
B11: 2PE49 (VHH)
VHH: B7 VHH with P14A, A23T
B12: 2PE72 (VHH)
VHH: B7 VHH with K43R, N73H
B13: 2PE5 (VHH)
VHH: B7 VHH with G26E, I28T, S29F, M34V, D52S, N58S, T77I
B14: 3PE5 (VHH)
VHH: B7 VHH with I28T, S29F, K43Q, D52S
B15: 2PE60 (VHH)
VHH: B7 VHH with I28T, S29F, D52S
B16: 2PE88 (VHH)
VHH: B7 VHH with G26E, I28T, S29F, M34V, D52S, T77I, S103P
B17: 2PE29 (VHH)
VHH: B7 VHH with I28T
B18: 2PE55 (VHH)
VHH: B7 VHH with G26E, I28T, S29F, M34V, D52S, Y59H, T77I
B19: 2PE28 (VHH)
VHH: QVQLQESGGGLVQIGGSLRLSCADSGSTFSINNAMGWYRQAPGKRRDWVAGITSSGVTNYPDSVKGRFTISRDNAKNTVYLQMNSLKPEDTAVYYCNLWPPRASPSGTIYWGQGTQVTVSS
B20: 2PE63 (VHH)
VHH: B19 VHH with I14V, D24A, D47E, T53S, S55G, N59H, T78I, T108S
B21: 2PE87 (VHH)
VHH: B19 VHH with I14V, D24A, D47E, T53S, S55G, N59H, T78I, N84D, V93A, T108S
B22: 2PE30 (VHH)
VHH: B19 VHH with I14V, T108R
B23: 2PE76 (VHH)
VHH: B19 VHH with I14V, D24A, D47E, T53S, S55G, N59H, T69A, T78I, N84D, T108S
B24: 2PE47 (VHH)
VHH: B19 VHH with I14V, D24A, D47E, T53S, S55G, N59H, T78I, N84D, T108S
B25: 2PE71 (VHH)
VHH: QVQLQESGGGMVQSGRSLRLSCLASVNIVNLNSVGWYRQAPGQQRELVASITSAGSTNYAESVKGRFTISRDNSKNTVYLQMNSLKPSDTAVYYCNLWPPRVSPSGRGYWGQGTQVTVSS
B26: 2PE2 (VHH)
VHH: QVQLQESGGGSVQVGGSLRLSCADSGSTFTINAMGWYRQAPGKRRDWVAGITSSGVTQYPDSVKGRFTISRDNAKNTVYLQMNSLKPEDTAVYYCNLWPPRASPSGRIYWGQGTQVTVSS
B27: 2PE95 (VHH)
VHH: B26 VHH with S11L, T30S, Q58K
B28: 2PE33 (VHH)
VHH: B26 VHH with S11L, V14P, T30S, A33S, S53T, S54D, V56I, Q58K, V63L, I108L
B29: 2PE58 (VHH)
VHH: B3 VHH with S28T, I30S, L47W, D54S, A56P, T57P, I77T, R101M, R107A, V108I
B30: 2PE56 (VHH)
VHH: B26 VHH with S11L, V14P
B31: 2PE83 (VHH)
VHH: B26 VHH with S11L, T30S, A33S, S53T, S54D, V56I, Q58K, V63L, I108L
B32: 2PE86 (VHH)
VHH: B26 VHH with S11L, T30S, S54D, Q58K, A102V
B33: 2PE39 (VHH)
VHH: B26 VHH with S11L, T30S, I31V, M34V, S54D, Q58N
B34: 2PE7 (VHH)
VHH: B26 VHH with S11L, Q13H, V14A, T30S, I31V, M34V, S54D, Q58N
B35: 2PE41 (VHH)
VHH: B26 VHH with S11L, T30S, A33S, R44H, S53T, S54D, V56I, Q58K, V63L, I108L
B36: 2PE43 (VHH)
VHH: QVQLQESGGGLVQPGGSLTLACKGSGVELSRSAMAWYQQAPGKRRDWVAGITSSGVTQYPDSVKGRFTISRDNAKNTVYLQMNSLKPEDAAVYYCNLWPPRASPSGRIYWGQGTQVTVSS

What follows are binders tested against recombinant human FAPa extracellular domain (human) (UniProt Q12884) (assay: library panning on coated antigen, positive colonies; members in Table 6).

binding | Binder
binds | B1
binds | B2
binds | B3
binds | B4
binds | B5
binds | B6
binds | B7
binds | B8
binds | B9
binds | B10
binds | B11
binds | B12
binds | B13
binds | B14
binds | B15
binds | B16
binds | B17
binds | B18

binding | Binder
binds | B19
binds | B20
binds | B21
binds | B22
binds | B23
binds | B24
binds | B25
binds | B26
binds | B27
binds | B28
binds | B29
binds | B30
binds | B31
binds | B32
binds | B33
binds | B34
binds | B35
binds | B36
